Results taken from US20250042956A1.
No constants are given. Whether binding was seen depends on the method and setting. For some of these results: In cells and extracts the contact can be indirect. Some results given as binding are weak or reduced against the parent protein; the word gives no strength. Where a sequence is shown, tags or fusion partners need not be part of it. Values belong to the binder of their own block, whether it stands above or below them.

The chains behind the UniProt entries cited, without tags or fusion partners.
UniProt Q9M658: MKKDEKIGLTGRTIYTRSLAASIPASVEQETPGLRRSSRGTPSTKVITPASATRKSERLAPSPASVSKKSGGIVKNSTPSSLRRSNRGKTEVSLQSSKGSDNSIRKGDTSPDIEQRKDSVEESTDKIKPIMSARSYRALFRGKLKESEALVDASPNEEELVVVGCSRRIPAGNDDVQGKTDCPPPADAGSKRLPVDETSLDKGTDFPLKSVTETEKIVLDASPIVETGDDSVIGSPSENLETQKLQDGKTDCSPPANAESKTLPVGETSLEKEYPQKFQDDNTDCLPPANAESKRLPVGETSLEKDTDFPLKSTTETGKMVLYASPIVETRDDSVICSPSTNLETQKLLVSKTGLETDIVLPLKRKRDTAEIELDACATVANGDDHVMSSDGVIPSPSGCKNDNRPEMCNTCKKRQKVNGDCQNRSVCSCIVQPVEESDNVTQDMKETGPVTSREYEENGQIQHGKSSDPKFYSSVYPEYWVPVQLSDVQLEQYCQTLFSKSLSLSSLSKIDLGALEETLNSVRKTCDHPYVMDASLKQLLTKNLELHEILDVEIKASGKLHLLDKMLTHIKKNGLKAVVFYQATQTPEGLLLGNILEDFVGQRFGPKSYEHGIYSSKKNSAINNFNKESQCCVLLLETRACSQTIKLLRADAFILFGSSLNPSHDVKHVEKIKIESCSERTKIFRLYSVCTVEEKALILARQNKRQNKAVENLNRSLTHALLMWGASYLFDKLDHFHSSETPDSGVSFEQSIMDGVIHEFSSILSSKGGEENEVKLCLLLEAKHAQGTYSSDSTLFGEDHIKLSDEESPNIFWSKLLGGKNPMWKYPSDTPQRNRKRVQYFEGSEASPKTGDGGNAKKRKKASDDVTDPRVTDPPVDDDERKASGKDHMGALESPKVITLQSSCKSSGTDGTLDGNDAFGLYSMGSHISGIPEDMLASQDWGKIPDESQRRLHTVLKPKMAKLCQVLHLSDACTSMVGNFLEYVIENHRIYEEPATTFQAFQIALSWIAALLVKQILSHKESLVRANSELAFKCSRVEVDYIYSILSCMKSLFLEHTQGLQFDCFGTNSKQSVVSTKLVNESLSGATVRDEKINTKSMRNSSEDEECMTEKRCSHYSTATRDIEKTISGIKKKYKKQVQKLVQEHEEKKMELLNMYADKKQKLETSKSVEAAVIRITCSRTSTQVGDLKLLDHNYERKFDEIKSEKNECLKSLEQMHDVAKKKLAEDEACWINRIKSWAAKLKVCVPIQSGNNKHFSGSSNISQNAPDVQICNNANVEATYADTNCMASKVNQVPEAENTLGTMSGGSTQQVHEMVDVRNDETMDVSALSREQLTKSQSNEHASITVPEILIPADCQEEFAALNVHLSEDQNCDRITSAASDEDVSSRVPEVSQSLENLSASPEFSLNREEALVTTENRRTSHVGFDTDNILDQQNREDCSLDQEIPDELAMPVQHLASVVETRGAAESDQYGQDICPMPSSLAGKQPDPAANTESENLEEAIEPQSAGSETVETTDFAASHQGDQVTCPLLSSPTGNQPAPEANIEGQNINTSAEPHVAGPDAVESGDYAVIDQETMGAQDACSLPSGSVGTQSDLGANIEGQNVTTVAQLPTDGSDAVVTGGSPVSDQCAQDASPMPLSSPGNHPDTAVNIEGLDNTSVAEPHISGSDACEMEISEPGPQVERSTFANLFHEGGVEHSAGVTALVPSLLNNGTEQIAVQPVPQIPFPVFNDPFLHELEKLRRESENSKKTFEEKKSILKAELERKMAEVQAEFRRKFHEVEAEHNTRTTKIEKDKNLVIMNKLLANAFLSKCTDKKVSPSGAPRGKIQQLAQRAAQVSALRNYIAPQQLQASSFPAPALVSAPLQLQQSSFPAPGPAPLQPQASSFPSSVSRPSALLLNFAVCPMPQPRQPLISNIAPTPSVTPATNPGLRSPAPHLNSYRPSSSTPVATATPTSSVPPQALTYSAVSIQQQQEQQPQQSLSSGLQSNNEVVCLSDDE

Experiments:
[1] = molecular target: T1, TRB1-Myc (Arabidopsis thaliana), Q8VWK4; experiment: co-IP, anti-FLAG, crossed lines; conditions: remark: other sources report otherwise
T1 chain: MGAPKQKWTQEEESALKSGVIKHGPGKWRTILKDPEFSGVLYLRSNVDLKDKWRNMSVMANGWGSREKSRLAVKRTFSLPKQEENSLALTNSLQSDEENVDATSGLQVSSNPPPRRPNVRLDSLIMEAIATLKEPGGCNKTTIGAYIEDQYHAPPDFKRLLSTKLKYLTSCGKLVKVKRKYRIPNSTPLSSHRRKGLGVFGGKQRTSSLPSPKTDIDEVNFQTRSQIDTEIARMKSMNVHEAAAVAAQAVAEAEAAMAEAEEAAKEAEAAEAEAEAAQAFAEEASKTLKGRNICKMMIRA

[2] = molecular target: T2, AT1G49950.3 TRB1 (Arabidopsis thaliana), Q8VWK4; experiment: IP-MS; conditions: remark: other sources report otherwise
T2 chain: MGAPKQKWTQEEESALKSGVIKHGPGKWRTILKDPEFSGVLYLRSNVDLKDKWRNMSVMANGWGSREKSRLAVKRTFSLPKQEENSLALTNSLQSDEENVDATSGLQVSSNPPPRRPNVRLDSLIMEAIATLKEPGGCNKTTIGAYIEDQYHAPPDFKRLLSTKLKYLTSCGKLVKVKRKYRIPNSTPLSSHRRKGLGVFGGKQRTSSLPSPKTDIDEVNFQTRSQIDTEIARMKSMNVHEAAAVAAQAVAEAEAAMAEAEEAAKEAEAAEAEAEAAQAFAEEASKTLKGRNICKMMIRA

[3] = molecular target: T3, HD2B (Arabidopsis thaliana) (UniProt Q56WH4); experiment: IP-MS, pHD2A:HD2A-FLAG line
T3 sequence: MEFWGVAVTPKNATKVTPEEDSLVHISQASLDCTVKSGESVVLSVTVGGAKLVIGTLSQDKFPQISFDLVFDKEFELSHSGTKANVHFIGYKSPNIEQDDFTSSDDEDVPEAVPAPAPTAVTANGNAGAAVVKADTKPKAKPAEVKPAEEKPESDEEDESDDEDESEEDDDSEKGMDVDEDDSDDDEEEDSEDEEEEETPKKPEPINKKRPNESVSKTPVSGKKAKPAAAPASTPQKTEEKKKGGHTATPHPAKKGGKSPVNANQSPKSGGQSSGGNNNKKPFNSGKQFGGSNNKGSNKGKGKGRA

[4] = molecular target: T4, HD2D (Arabidopsis thaliana) (UniProt Q9M4T3); experiment: IP-MS, pHD2A:HD2A-FLAG line
T4 sequence (looked up): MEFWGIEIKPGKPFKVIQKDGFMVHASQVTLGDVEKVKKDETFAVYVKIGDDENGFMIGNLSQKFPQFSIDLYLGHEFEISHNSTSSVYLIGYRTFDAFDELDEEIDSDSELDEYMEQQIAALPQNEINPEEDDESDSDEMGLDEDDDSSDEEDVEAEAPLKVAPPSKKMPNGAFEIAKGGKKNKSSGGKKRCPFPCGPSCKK

[5] = molecular target: T5, HD2C (Arabidopsis thaliana) (UniProt Q9LZR5); experiment: IP-MS, pHD2A:HD2A-FLAG line
T5 sequence: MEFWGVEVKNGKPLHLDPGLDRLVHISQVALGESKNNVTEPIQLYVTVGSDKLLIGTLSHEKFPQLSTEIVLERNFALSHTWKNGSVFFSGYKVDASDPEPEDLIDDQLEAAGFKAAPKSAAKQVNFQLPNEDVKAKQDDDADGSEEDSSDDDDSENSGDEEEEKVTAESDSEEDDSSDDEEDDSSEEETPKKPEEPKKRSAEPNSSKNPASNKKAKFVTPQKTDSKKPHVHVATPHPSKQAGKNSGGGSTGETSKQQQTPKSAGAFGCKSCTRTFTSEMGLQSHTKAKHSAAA

[6] = molecular target: Myc-JMJ14 (Arabidopsis thaliana), Q8GUI6; experiment: co-IP (FLAG-IP, anti-Myc Western), F2 crossed lines; conditions: remark: other sources report otherwise
[7] = molecular target: Myc-JMJ14 (Arabidopsis thaliana), Q8GUI6; experiment: co-IP of FIG. 22A; conditions: remark: other sources report otherwise
[8] = molecular target: AT4G20400.1 JMJ14 (Arabidopsis thaliana), Q8GUI6; experiment: IP-MS, pTRB:TRB-FLAG lines; conditions: remark: other sources report otherwise
[9] = molecular target: T6, AT2G17540.2 TRBIP2 (Arabidopsis thaliana); experiment: IP-MS
T6 sequence: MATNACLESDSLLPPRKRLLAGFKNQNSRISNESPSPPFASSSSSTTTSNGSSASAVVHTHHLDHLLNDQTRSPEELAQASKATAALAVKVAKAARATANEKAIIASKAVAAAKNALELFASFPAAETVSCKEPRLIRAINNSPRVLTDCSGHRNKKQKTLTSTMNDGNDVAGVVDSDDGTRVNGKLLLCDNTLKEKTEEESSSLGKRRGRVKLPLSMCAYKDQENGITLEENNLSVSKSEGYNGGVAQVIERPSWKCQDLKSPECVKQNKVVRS

[10] = molecular target: T7, AT4G35510.1 TRBIP1 (Arabidopsis thaliana); experiment: IP-MS
T7 sequence: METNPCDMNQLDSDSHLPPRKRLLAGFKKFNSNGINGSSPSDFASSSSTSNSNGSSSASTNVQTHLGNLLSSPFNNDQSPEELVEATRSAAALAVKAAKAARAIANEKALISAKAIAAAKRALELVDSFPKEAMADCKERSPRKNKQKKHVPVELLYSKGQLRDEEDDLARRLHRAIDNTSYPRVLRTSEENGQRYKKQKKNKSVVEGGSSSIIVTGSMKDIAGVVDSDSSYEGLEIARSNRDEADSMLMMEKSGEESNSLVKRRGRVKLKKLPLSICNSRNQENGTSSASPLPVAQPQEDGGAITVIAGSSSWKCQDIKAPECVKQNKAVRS

[11] = molecular target: MORPHEUS MOLECULE 1 (MOM1) (Arabidopsis thaliana) (UniProt Q9M658); experiment: IP-MS, pPHD1:PHD1-FLAG line
[12] = molecular target: T8, PIAL2 (Arabidopsis thaliana) (UniProt F4JYG0); experiment: IP-MS, pPHD1:PHD1-FLAG line
T8 sequence: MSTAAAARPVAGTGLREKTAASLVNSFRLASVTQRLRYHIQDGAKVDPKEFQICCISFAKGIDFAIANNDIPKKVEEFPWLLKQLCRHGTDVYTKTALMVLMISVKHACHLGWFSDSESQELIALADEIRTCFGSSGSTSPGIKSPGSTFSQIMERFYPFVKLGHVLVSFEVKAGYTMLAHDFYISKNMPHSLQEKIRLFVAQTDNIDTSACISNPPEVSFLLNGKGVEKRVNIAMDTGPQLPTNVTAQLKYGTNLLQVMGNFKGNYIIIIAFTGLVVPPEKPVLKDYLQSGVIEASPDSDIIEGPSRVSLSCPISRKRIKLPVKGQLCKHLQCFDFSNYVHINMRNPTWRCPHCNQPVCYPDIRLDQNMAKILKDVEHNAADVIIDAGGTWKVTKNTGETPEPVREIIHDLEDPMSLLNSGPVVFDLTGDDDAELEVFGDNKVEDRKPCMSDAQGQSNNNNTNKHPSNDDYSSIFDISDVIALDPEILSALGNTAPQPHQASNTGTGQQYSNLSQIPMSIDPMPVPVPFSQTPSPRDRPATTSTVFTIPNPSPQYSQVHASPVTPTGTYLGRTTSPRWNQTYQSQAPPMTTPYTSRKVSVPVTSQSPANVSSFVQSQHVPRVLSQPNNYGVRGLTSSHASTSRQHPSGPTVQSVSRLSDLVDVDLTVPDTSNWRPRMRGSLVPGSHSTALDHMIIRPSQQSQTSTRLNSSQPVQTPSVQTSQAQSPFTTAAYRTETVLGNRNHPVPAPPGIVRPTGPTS

binding [1]: binds | binding [2]: binds
B1: JMJ14-FLAG, Q8GUI6 1-954 (enzyme, Arabidopsis thaliana, UniProt Q8GUI6 1-954, looked up, not shown: small tags and cut ends)
chain: MDQLASLAESVAMEEDSEKQSIKGESSLEPDSTPSSPKITARWNPSEACRPLVDDAPIFYPTNEDFDDPLGYIEKLRSKAESYGICRIVPPVAWRPPCPLKEKKIWENSKFPTRIQFIDLLQNREPIKKSTKTKKRKRRRISKIGYTRRKRDSGCDTASSGSSDSEGKFGFQTGPDFTLEEFQKYDEYFKECYFQSEDHPGSKASENKKFKPKVKDLEGEYWRIVEQATDEVEVYYGADLETKKFGSGFPKYKPGYPISEADQYSQCGWNLNNLSRLPGSVLAFESCDISGVIVPWLYVGMCFSTFCWHVEDHHLYSMNYLHTGDPKVWYGIPGNHAESFENVMKKRLPDLFEEQPDLLHQLVTQLSPRILKEEGVPVYRAVQRSGEFILTFPKAYHSGFNCGFNCAEAVNVAPVDWLVHGQNAVEGYSKQRRKSSLSHDKLLLGAAMEATYCLWELSLSKKKTPVIARWKRVCSEDGLLTKAVKKRVQMEEERLNHLQDGFSLRKMEGDFDNKRERECFLCFYDLHMSASSCKCSPNRFACLIHAKDLCSCESKDRYILIRHTLDELWALVRALEGDLDAIDLWASKCRDQYPSQHPRAREYAYLKSAPCIKSRGSSKVQQREQNNLQLVSERLQSDLTSNKEVQLKQDGDSDVNRHGHESERNHVHGITDKSAVTDVKLGVGGKFDEKKISVESQNPHSVSDVGCSELAKKVDGCLGGKDQNAATNRLSLSVELLSSGSLVVKKLWCSKQAIYPKGFKSRVKFLSVLDPTNLTNYISEVLDAGLLGPLFRVSVEDYPTENFSNVSAEKCWQMVTQRLKLEIIKKCDQPVSSLTSLQPLESINGLEMFGFLSPHVIKVVEALDPKHQLEEYWNQKAVKLFGAEPIKEGEKDDTEKGGASDPSLDRDTRLLRGLLKKATPEELVMMHGLLCGETRNTELKEELSTLVDKMEISP

binding [3]: binds | binding [4]: binds | binding [5]: binds
B2: HD2A-FLAG (enzyme, not shown: small tags and cut ends)
chain: MEFWGIEVKSGKPVTVTPEEGILIHVSQASLGECKNKKGEFVPLHVKVGNQNLVLGTLSTENIPQLFCDLVFDKEFELSHTWGKGSVYFVGYKTPNIEPQGYSEEEEEEEEEVPAGNAAKAVAKPKAKPAEVKPAVDDEEDESDSDGMDEDDSDGEDSEEEEPTPKKPASSKKRANETTPKAPVSAKKAKVAVTPQKTDEKKKGGKAANQSPKSASQVSCGSCKKTFNSGNALESHNKAKHAAAK

binding [6]: binds | binding [7]: binds | binding [8]: binds
B3: FLAG-TRB3, Q9M2X3 1-295 (protein, not shown: small tags and cut ends)
chain: MGAPKLKWTPEEETALKAGVLKHGTGKWRTILSDPVYSTILKSRSNVDLKDKWRNISVTALWGSRKKAKLALKRTPLSGSRQDDNATAITIVSLANGDVGGQQIDAPSPPAGSCEPPRPSTSVDKIILEAITSLKRPFGPDGKSILMYIEENFKMQPDMKRLVTSRLKYLTNVGTLVKKKHKYRISQNYMAEGEGQRSPQLLLEGNKENTPKPEENGVKNLTKSQVGGEVMIMGMTEKEAAAAAARAVAEAEFAMAEAEEAAREADKAEAEAEAAHIFAKAAMKAVKYRMHSQTR

binding [9]: binds
B4: FLAG-TRB3 (protein, not shown: small tags and cut ends)
chain: MGAPKLKWTPEEETALKAGVLKHGTGKWRTILSDPVYSTILKSRSNVDLKDKWRNISVTALWGSRKKAKLALKRTPLSGSRQDDNATAITIVSLANGDVGGQQIDAPSPPAGSCEPPRPSTSVDKIILEAITSLKRPFGPDGKSILMYIEENFKMQPDMKRLVTSRLKYLTNVGTLVKKKHKYRISQNYMAEGEGQRSPQLLLEGNKENTPKPEENGVKNLTKSQVGGEVMIMGMTEKEAAAAAARAVAEAEFAMAEAEEAAREADKAEAEAEAAHIFAKAAMKAVKYRMHSQTR

binding [6]: binds | binding [7]: binds | binding [8]: binds
B5: FLAG-TRB1, Q8VWK4 1-300 (protein, not shown: small tags and cut ends)
chain: MGAPKQKWTQEEESALKSGVIKHGPGKWRTILKDPEFSGVLYLRSNVDLKDKWRNMSVMANGWGSREKSRLAVKRTFSLPKQEENSLALTNSLQSDEENVDATSGLQVSSNPPPRRPNVRLDSLIMEAIATLKEPGGCNKTTIGAYIEDQYHAPPDFKRLLSTKLKYLTSCGKLVKVKRKYRIPNSTPLSSHRRKGLGVFGGKQRTSSLPSPKTDIDEVNFQTRSQIDTEIARMKSMNVHEAAAVAAQAVAEAEAAMAEAEEAAKEAEAAEAEAEAAQAFAEEASKTLKGRNICKMMIRA

binding [9]: binds | binding [10]: binds
B6: FLAG-TRB1 (protein, not shown: small tags and cut ends)
chain: MGAPKQKWTQEEESALKSGVIKHGPGKWRTILKDPEFSGVLYLRSNVDLKDKWRNMSVMANGWGSREKSRLAVKRTFSLPKQEENSLALTNSLQSDEENVDATSGLQVSSNPPPRRPNVRLDSLIMEAIATLKEPGGCNKTTIGAYIEDQYHAPPDFKRLLSTKLKYLTSCGKLVKVKRKYRIPNSTPLSSHRRKGLGVFGGKQRTSSLPSPKTDIDEVNFQTRSQIDTEIARMKSMNVHEAAAVAAQAVAEAEAAMAEAEEAAKEAEAAEAEAEAAQAFAEEASKTLKGRNICKMMIRA

binding [11]: binds | binding [12]: binds
B7: PHD1-FLAG (protein, not shown: small tags and cut ends)
chain: MSLHVKGPVCQTCGDIGFEEALVFCDSCMFESIHRYCLGITPIPFTEYITWICEDCDNSESDSDCNEVDQTVKKKKKSRNQPLVVLAEDNVLQEPLEGSKREESSCSRKPHELTCLDGNGESVLEAADSSSVPDHSSCTSKRKEVDQTANLGHILERSEKKKKKKKKKKSINHSPPVLAVEDHELQGTTNVVEPVEVSSSSPTKETMESKRQESSDSRKPHELTCLVGDSETANSSSVPEHNSCAVKKRKLSSGNKQIQLADGSSSCRVAESNMPLTLTSRNYRAQPIKIPIWRGLMSVKGGNSCTMDGIVAHVSSLACPKVHETASSLKGRLSAEILPRLEVWPKTFLKNGGPKDESVALFFFPSSESNDEKVFDSLVDKMKKNDSAMRCVLNDAELLLFTSYMLPKDSWTFNSKYYLWGVFKPRQTSRY
